Reference: doi:10.1101/2021.03.09.434543
These are yes or no findings as the source states them, for the method shown. Binding calls can cover weak binding; strength is not graded here.

Sequences of proteins named here, by UniProt entry; tags and fusion partners are left off.
UniProt Q93WI9: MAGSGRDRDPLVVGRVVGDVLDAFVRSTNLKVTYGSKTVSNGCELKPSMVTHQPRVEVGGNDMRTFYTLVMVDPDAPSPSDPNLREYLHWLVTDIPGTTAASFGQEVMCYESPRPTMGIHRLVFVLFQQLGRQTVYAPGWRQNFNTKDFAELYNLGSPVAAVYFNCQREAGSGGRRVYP
UniProt Q8VWH2: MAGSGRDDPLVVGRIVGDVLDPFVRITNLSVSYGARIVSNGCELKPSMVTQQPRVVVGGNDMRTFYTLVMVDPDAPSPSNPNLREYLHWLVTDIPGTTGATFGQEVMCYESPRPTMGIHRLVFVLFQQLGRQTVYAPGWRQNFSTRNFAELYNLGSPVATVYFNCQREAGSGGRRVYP

Target: OsbZIP62/OsFD7, yeast two-hybrid fusion (rice (Oryza sativa)) (UniProt B7F384)
Assay: two-hybrid

Hd3a (OsFTL2), yeast two-hybrid fusion (from UniProt Q93WI9 1-179)
binding: binds

RFT1 (OsFTL3), yeast two-hybrid fusion (from UniProt Q8VWH2 1-178)
binding: binds

OsFTL1, yeast two-hybrid fusion (from UniProt B7ELI3)
binding: binds
